Measured values as given in PubChem BioAssay AID504467 (National Center for Advancing Translational Sciences (NCATS), 2011).
In all, about 330,000 compounds went through this assay and about 7,700 (2.3%) were called active. The inconclusive results got no clear call from the source; some entries with a clear call stand among them for comparison. Calls follow the shape of the dose curve; as a rule, active = well fitted inhibition curve with a large enough effect; inconclusive = small, poorly fitted or top-dose-only effect, or effect the other way; inactive = flat fitted curve, though single readings scatter. Potencies beside an inconclusive call are fits to weak or partial responses and may not hold up.

test: qHTS screen for small molecules that inhibit ELG1-dependent DNA repair in human embryonic kidney (HEK293T) cells expressing luciferase-tagged ELG1; details: HEK293T ELG1-luciferase reporter, luminescence, 16 h, DNA damage induced by 5-fluorouridine; activity change, negative = inhibition: at 46.1 µM (top of the series); also: nearly all actives have a fitted effect of over 55% in size
In short: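 Cells (2,000 per well) received 5-fluorouridine plus test compound or DMSO and were incubated 16 hr at 37 °C, 5% CO2. Luciferase activity was read by luminescence 30 min after ONE-Glo addition; signal suppression marked inhibition of damage-induced ELG1 function.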
% is scaled to controls: 0 for no effect and ±100 for the full control effect; potency is read from the fitted curve at half-maximal effect.

SMILES	Potency	activity change, negative = inhibition
O=C(Nc1cnccn1)Nc1ccc(Cl)cc1Cl	inconclusive: 8.2 µM [activator, partial curve]	–
O=C1CN(C(=O)COc2ccc(F)cc2Cl)c2ccccc2N1	inconclusive: 23.1 µM [activator, single point]	–
CC(=O)Nc1ccc(C(=O)N/N=C/c2ccc(F)cc2)cc1	–	inactive: 0%
Cc1sc2ncnc(N3CCC(C(=O)Nc4cc(S(C)(=O)=O)ccc4Cl)CC3)c2c1C	inconclusive: 11.6 µM [inhibitor, partial curve, poor fit]	–
CCOC(=O)N1CCC(n2c(SCC(=O)NCc3ccco3)nc3ccsc3c2=O)CC1	inconclusive: 35.5 µM [inhibitor, single point]	–
O=C(Nc1cccnc1)c1cc([N+](=O)[O-])ccc1Cl	inconclusive: 20.6 µM [activator, partial curve]	–
Cc1ccc(Nc2nnc(SCC(=O)NCCN3C(=O)CSC3=O)s2)cc1	inconclusive: 18.4 µM [activator, single point]	–
O=C(Nc1cccc(C(=O)Nc2ccccc2F)c1)c1ccccc1	–	inactive: -15.2%
COc1ccc(/C=C/C(=O)Nn2cnnc2)cc1	–	inactive: 20.1%
Cc1ccc(Nc2c(-c3ccc(C)o3)nc3ncccn23)cc1	inconclusive: 16.4 µM [activator, partial curve, poor fit]	–
CCCN(C(=O)c1cccs1)c1nnc(-c2ccncc2)s1	inconclusive: 25.9 µM [activator, single point]	–
N#C/C(=C\c1ccc(Oc2ccc(C(F)(F)F)cc2[N+](=O)[O-])cc1)c1nc2ccccc2[nH]1	inconclusive: 10 µM [inhibitor, partial curve, poor fit]	–
Cc1cc(OCC(=O)N(C)C)c2c(-c3ccccc3)cc(=O)oc2c1	inconclusive: 20.6 µM [inhibitor, partial curve, poor fit]	–
COc1ccc(NC(C)=O)cc1NC(=O)c1cccc(S(=O)(=O)N2CCN(Cc3ccccc3)CC2)c1	inconclusive: 32.6 µM [inhibitor, single point]	–
COc1cc(NC(=O)CN2CCC(C(N)=O)(N3CCCCC3)CC2)c(OC)cc1Cl	inconclusive: 23.1 µM [inhibitor, single point]	–
C[C@@H]1C[C@H]2[C@@H]3C[C@H](F)C4=CC(=O)C=C[C@]4(C)[C@@]3(Cl)[C@@H](O)C[C@]2(C)[C@H]1C(=O)COC(=O)C(C)(C)C	inconclusive: 3.16 µM [activator, partial curve, poor fit]	–
Cc1occc(=O)c1OC(=O)Nc1ccc(Cl)c(Cl)c1	inconclusive: 23.1 µM [inhibitor, partial curve, poor fit]	–
COc1cccc(OCC(=O)N(C)Cc2nc(-c3ccccc3)no2)c1	inconclusive: 1.3 µM [inhibitor, partial curve, poor fit]	–
Cc1onc(-c2ccccc2)c1C(=O)N1CCN(Cc2ccc3c(c2)OCO3)CC1	inconclusive: 16.4 µM [inhibitor, partial curve, poor fit]	–
COc1ccc(C2CC(c3cccs3)=NN2C(=O)COC(=O)C2CCCCC2)cc1OC (stereo not drawn)	–	inactive: 5.45%
CCOC(=O)c1cc(CC)sc1/N=C/c1c(O)ccc2ccccc12	–	inactive: 13.8%

SMILES	Potency	activity change, negative = inhibition
C/C(=N/NC(=O)c1ccc(Br)o1)c1ccncc1	inconclusive: 23.1 µM [activator, single point]	–
O=C(Cn1ccc(C(F)(F)F)n1)N/N=C/c1ccc(N2CCOCC2)cc1	inconclusive: 29.1 µM [activator, single point]	–
Cc1cc(C(=O)N/N=C/c2ccc([N+](=O)[O-])cc2)c(C)o1	inconclusive: 29.1 µM [inhibitor, single point]	–
CCCCC(CC)CNC(=O)C(=O)C1C(=O)Nc2ccccc21 (stereo not drawn)	inconclusive: 29.1 µM [inhibitor, partial curve, poor fit]	–
N=c1oc2ccccc2cc1C(=O)NC1CCCCCC1	inconclusive: 6.51 µM [activator, partial curve]	–
COc1ccc(/C=C2\Sc3ccc(C(=O)N4CCCC4)cc3N(C)C2=O)cc1OC	inconclusive: 23.1 µM [inhibitor, single point]	–
Clc1ccc2c(c1)C(N1CCNCC1)Cc1ccccc1S2 (stereo not drawn)	inconclusive: 16.4 µM [inhibitor, partial curve]	–
CS(=O)(=O)N(CC(=O)Nc1c(F)cccc1F)Cc1ccccc1	inconclusive: 0.164 µM [activator, single point]	–
Cc1cc(C(=O)N2CCCC(N3CCN(c4ccc(F)cc4)CC3)C2)c(C)o1 (stereo not drawn)	inconclusive: 11.6 µM [inhibitor, partial curve, poor fit]	–
Cc1nc(N)c(C#N)c(-c2ccc3c(c2)OCO3)c1C	–	inactive: -1.76%
O=C(NC1CC1)c1nc(Cn2cc([N+](=O)[O-])cn2)no1	inconclusive: 0.92 µM [inhibitor, full curve]	–
O=C(c1ccc(S(=O)(=O)Nc2ccccc2F)cc1)N1CCN(c2ccccc2O)CC1	–	inactive: -3.42%
O=C(Nc1cccc(NC(=O)c2ccc3c(c2)OCO3)c1)c1ccccc1	inconclusive: 18.3 µM [inhibitor, single point]	–
CC(C)Sc1nc2c(c(=O)n(C)c(=O)n2C)n1Cc1ccc(Cl)cc1	inconclusive: 35.5 µM [inhibitor, single point]	–
CCCCNC(=O)N1CCCC(C(=O)c2cc(C)c(OC)c(C)c2)C1 (stereo not drawn)	inconclusive: 32.6 µM [inhibitor, partial curve, poor fit]	–
CC#CC(=O)N1CCC(n2nccc2NC(=O)c2ccc3c(c2)OCO3)CC1	inconclusive: 18.3 µM [activator, partial curve]	–
Cc1[nH]c2ccccc2c1-c1nc2ccccc2[nH]1	inconclusive: 23.1 µM [activator, partial curve]	–
Cc1cc(/C=N/Nc2nc(N)ncc2[N+](=O)[O-])c(C)n1-c1ccccc1F	inconclusive: 0.184 µM [activator, partial curve]	–
Cc1nc(Nc2cccc(O)c2)c2c3c(sc2n1)CCC3	inconclusive: 29.1 µM [inhibitor, single point]	–
O=C(Nc1ccc(Br)cn1)c1coc(=O)c(Br)c1	inconclusive: 20.6 µM [activator, single point]	–
O=C(CCNC(=O)c1ccc(Br)cc1)Nc1cccc(S(=O)(=O)N2CCCCCC2)c1	inconclusive: 5.8 µM [activator, single point]	–

SMILES	Potency	activity change, negative = inhibition
COc1ccc(/C=N/NC(=O)c2ccccc2OC)cc1COc1ccccc1[N+](=O)[O-]	active: 13 µM	–
C=CCOc1ccc(/C=C/C(=O)OCC(=O)N2CCC(c3ccccc3)=N2)cc1	inconclusive: 23.1 µM [inhibitor, single point]	–
COc1ccc(CN2CCC(C(=O)Nc3ccc(Oc4ccccc4)nc3)CC2)cc1F	inconclusive: 1.03 µM [inhibitor, partial curve, poor fit]	–
COc1ccc(NC(=S)NNC(=O)CCn2cc([N+](=O)[O-])cn2)cc1	inconclusive: 8.2 µM [activator, partial curve, poor fit]	–
CC1CCc2sc(C(=O)OCC(=O)NCc3ccccc3)cc2C1 (stereo not drawn)	–	inactive: -2.22%
O=C(Nc1ccccc1)N1CCc2ccccc2C1	inconclusive: 23.1 µM [activator, partial curve]	–
COc1cccc(CNS(=O)(=O)c2cc3c(cc2Cl)NC(=O)CO3)c1	inconclusive: 29.1 µM [inhibitor, single point]	–
Cc1ccc(C)c(-c2nnc(NC(=O)CCS(=O)(=O)c3ccc(F)cc3)o2)c1	–	inactive: 14.3%
C=CCn1c(SCC(=O)NC(=O)c2cccc([N+](=O)[O-])c2)nnc1-c1ccccc1	–	inactive: 0.315%
O=c1c2ccccc2nnn1CSc1nnc2ccccn12	inconclusive: 16.4 µM [activator, partial curve]	–
O=C(O)c1cccc(NN=C2c3ccccc3-c3ccccc32)c1	inconclusive: 32.6 µM [activator, partial curve, poor fit]	–
CCN(CC)C(=O)c1ccc(C(=O)Nc2ccc(F)cc2)cc1	inconclusive: 7.3 µM [activator, partial curve]	–
CCOC(=O)c1c(C)[nH]c(C)c1C(=O)COC(=O)c1ccc(OC)cc1	inconclusive: 20.6 µM [inhibitor, single point]	–
CCC(=O)N(Cc1cc2c(C)ccc(C)c2[nH]c1=O)C1CCCCC1	–	inactive: 16.2%
COc1cccc(OCC(O)CN2CCC(Cc3ccccc3)CC2)c1 (stereo not drawn)	inconclusive: 1.16 µM [inhibitor, partial curve, poor fit]	–
COc1ccc(-c2nc3nc(C)cc(C)n3n2)cc1	inconclusive: 5.01 µM [activator, partial curve]	–
CN(C)c1ccc(/C=C/c2nc3ccccc3c(=O)[nH]2)cc1	inconclusive: 0.651 µM [activator, partial curve, poor fit]	–
CCCCC(=O)NC(c1cccs1)c1cc(Cl)c2cccnc2c1O (stereo not drawn)	inconclusive: 3.66 µM [inhibitor, partial curve, poor fit]	–
Cc1ccc(C(=O)CSC2=C(C#N)C(c3ccco3)C3=C(CC(C)(C)CC3=O)N2)cc1 (stereo not drawn)	inconclusive: 9.2 µM [inhibitor, partial curve]	–
O=C(N/N=C/c1ccccc1C(=O)O)c1ccc(COc2cccc3cccnc23)cc1	–	inactive: -9.96%
CC1=CSC2=NC(=O)/C(=C\c3cccn3-c3ccccc3)C(=N)N12	inconclusive: 20.6 µM [inhibitor, single point]	–

Record cards (already shown).
`COc1ccc(-c2nc3nc(C)cc(C)n3n2)cc1` is listed with Potency: inconclusive: 5.01 µM [activator, partial curve]
`COc1ccc(/C=C/C(=O)Nn2cnnc2)cc1` is listed with activity change, negative = inhibition: inactive: 20.1%
`O=C(N/N=C/c1ccccc1C(=O)O)c1ccc(COc2cccc3cccnc23)cc1` is listed with activity change, negative = inhibition: inactive: -9.96%
`C=CCOc1ccc(/C=C/C(=O)OCC(=O)N2CCC(c3ccccc3)=N2)cc1` is listed with Potency: inconclusive: 23.1 µM [inhibitor, single point]
